The target in experiment [1] is T1, TIR1-Myc (Arabidopsis thaliana) (UniProt Q570C0).
T1 sequence: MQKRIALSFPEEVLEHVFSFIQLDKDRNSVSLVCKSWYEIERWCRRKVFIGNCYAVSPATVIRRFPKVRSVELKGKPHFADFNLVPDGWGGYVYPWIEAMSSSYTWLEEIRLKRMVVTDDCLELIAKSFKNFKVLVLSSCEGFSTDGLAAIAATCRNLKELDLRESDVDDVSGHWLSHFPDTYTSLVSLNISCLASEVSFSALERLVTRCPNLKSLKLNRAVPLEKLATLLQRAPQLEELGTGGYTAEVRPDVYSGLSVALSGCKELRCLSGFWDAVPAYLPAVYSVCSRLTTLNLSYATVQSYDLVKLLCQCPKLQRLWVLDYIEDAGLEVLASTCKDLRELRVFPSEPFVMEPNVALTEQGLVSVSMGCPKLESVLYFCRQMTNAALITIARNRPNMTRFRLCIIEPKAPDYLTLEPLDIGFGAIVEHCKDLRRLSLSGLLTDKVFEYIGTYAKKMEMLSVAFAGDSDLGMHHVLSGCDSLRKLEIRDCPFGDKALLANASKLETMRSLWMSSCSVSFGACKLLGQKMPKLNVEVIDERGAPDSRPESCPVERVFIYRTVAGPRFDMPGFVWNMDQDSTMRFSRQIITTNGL
Kind of experiment: co-IP; Arabidopsis mesophyll protoplasts co-transfected; anti-Myc antibody immunoprecipitates IAA16-Myc or TIR1-Myc, anti-GFP antibody detects MPK3-GFP or MPK6-GFP.

By UniProt entry, the sequences of proteins in these tests, tags left out.
UniProt Q39026: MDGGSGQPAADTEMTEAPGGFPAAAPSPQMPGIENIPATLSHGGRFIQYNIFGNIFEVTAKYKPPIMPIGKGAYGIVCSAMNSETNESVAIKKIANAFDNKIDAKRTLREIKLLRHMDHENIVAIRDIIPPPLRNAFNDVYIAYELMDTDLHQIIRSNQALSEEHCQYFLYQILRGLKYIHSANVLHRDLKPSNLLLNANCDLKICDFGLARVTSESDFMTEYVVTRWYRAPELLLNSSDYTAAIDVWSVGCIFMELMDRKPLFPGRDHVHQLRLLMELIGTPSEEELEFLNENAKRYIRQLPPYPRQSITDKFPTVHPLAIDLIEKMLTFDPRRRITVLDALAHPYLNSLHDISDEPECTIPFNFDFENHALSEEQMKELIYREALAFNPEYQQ

Experiment [2] deals with T2, IAA16-Myc (Arabidopsis thaliana) (UniProt O24407).
T2 sequence: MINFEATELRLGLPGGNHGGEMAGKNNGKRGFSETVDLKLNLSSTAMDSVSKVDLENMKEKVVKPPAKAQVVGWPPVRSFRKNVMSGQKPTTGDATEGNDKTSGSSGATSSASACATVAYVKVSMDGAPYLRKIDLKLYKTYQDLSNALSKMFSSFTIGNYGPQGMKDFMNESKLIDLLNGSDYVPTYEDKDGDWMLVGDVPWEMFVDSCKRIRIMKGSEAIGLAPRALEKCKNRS
The experiment is described as above.

Experiment [3] deals with T3, TIR1-YFP^C (Arabidopsis thaliana) (UniProt Q570C0).
T3 sequence: T1 sequence
In words: split reporter; BiFC in Arabidopsis mesophyll protoplasts; MPK3/6-YFP^N with TIR1- or IAAs-YFP^C, 25 °C for 12 h in the dark, confocal microscopy.

For experiment [4], the target named is T4, IAA34, yeast two-hybrid fusion (Arabidopsis thaliana) (UniProt Q9C5X0).
T4 sequence: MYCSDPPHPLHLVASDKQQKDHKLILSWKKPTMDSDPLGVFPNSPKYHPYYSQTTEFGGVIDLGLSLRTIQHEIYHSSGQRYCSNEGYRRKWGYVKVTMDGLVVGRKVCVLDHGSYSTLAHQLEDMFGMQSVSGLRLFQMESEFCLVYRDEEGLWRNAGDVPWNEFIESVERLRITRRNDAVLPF
Kind of experiment: two-hybrid; Matchmaker Gold (GAL4 based), pGBKT7 and pGADT7 in yeast strain AH109; growth on SD medium without Leu, Trp, His and Ade for 2 to 3 days, 30 °C.

The target of experiment [5] is T5, IAA16, yeast two-hybrid fusion (Arabidopsis thaliana) (UniProt O24407).
T5 sequence: T2 sequence
The description is as above.

The target in experiment [6] is T6, IAA32, yeast two-hybrid fusion (Arabidopsis thaliana) (UniProt Q8RYC6).
T6 sequence: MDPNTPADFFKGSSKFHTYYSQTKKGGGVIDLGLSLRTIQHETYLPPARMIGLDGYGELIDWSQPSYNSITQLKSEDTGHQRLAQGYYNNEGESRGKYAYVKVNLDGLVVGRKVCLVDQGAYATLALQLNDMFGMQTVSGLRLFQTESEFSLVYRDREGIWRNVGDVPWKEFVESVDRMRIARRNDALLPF
The description is as above.

The target in experiment [7] is T7, transport inhibitor response 1 (TIR1), yeast two-hybrid fusion (Arabidopsis thaliana) (UniProt Q570C0).
T7 sequence: T1 sequence
Described as above.

Results are given in words; binding and its absence hold for the method and conditions named. For some assays here: In cells and extracts the contact can be indirect. Some results given as binding are weak or reduced against the parent protein; the word gives no strength. Where a sequence is shown, tags or fusion partners need not be part of it.

For “MPK6-GFP (from UniProt Q39026 1-395) (enzyme)”, the binding result in experiment [1] and in experiment [2] was “binds” throughout.

For “MPK6-YFP^N (from UniProt Q39026 1-395) (enzyme)”, the binding entry in experiment [3] is listed as “binds”.

“mitogen-activated protein kinase 6 (MPK6), yeast two-hybrid fusion (from UniProt Q39026 1-395) (enzyme)”: the binding entry in experiment [4], in experiment [5], in experiment [6] and in experiment [7] was “binds” throughout.

B1: mitogen-activated protein kinase 3 (MPK3), yeast two-hybrid fusion (enzyme, UniProt Q39023 1-370)
chain: MNTGGGQYTDFPAVETHGGQFISYDIFGSLFEITSKYRPPIIPIGRGAYGIVCSVLDTETNELVAMKKIANAFDNHMDAKRTLREIKLLRHLDHENIIAIRDVVPPPLRRQFSDVYISTELMDTDLHQIIRSNQSLSEEHCQYFLYQLLRGLKYIHSANIIHRDLKPSNLLLNANCDLKICDFGLARPTSENDFMTEYVVTRWYRAPELLLNSSDYTAAIDVWSVGCIFMELMNRKPLFPGKDHVHQMRLLTELLGTPTESDLGFTHNEDAKRYIRQLPNFPRQPLAKLFSHVNPMAIDLVDRMLTFDPNRRITVEQALNHQYLAKLHDPNDEPICQKPFSFEFEQQPLDEEQIKEMIYQEAIALNPTYG
Take B1: the binding result in experiment [4], in experiment [5], in experiment [6] and in experiment [7] was “binds” in each case.

B2: MPK3-YFP^N (enzyme, UniProt Q39023 1-370)
chain: B1 chain
Consider B2, for which the binding result in experiment [3] is reported as “binds”.

B3: MPK3-GFP (enzyme, UniProt Q39023 1-370)
chain: B1 chain
Turning to B3, the binding entry in experiment [1] and in experiment [2] was “binds” in each case.

(Values after article PMC11900227.)
